# Measurements taken from PubChem BioAssay AID2685 (National Center for Advancing Translational Sciences (NCATS), 2010).
# This is one part of the list. Further columns of the screen follow, without active or inactive calls. The list favours compounds with an active or inconclusive main result. Words in brackets tell the shape of the fitted curve; partial curves, single points and poor fits give uncertain potencies.
# Assay: qHTS Assay for Lipid Storage Modulators in Drosophila S3 Cells;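 on cell number change: cells counted by Cell Tracker Red CMTPX staining in the red channel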
# Conditions: BODIPY lipid droplet fluorescence, 18-24 h; for cell number change: measured here: cell count max response, cells fed with added oleic acid
# Procedure, shortened: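 Drosophila S3 cells loaded with oleic acid (400 uM, as added) and compounds at several concentrations; lipid droplets imaged by 488-nm laser-scanning cytometry, 500–530 nm intensity and object ratio to cell channel. Percent activity normalized to 20 uM Triacsin C.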
# [1] = measured here: lipid fluorescence (Fed channel) AC50, cells fed with added oleic acid
# [2] = measured here: cell number channel AC50, cells fed with added oleic acid
SMILES,cell number change,AC50 [1],AC50 [2]
Cc1ccc(C2CC(c3ccccc3Cl)n3nc(N)nc3N2)cc1 (stereo unspecified),8.66%,–,–
Cc1cc(NC(=O)c2ccccc2C)ccc1NC(=O)c1ccccc1Cl,7.66%,"2.59 µM [rising, full curve]",–
O=C(NCCNS(=O)(=O)c1ccccc1Cl)c1cc(OCC(F)(F)F)ccc1OCC(F)(F)F,-29.5%,"29.1 µM [falling, single point]",–
CCN(CC(=O)NCc1cccs1)C(=O)c1cccc(S(=O)(=O)Nc2cccc(C)c2)c1,3.07%,"25.9 µM [falling, partial curve, poor fit]",–
CN(C)C(=O)c1ccc(NC(=O)c2cccc(S(=O)(=O)N3CCCCCC3)c2)cc1,11.9%,"32.6 µM [rising, single point]",–
CNC(=O)CC1C(=O)N(C)C(=S)N1NC(=O)c1ccc(Cl)cc1 (stereo unspecified),23%,"1.46 µM [falling, full curve]","0.13 µM [falling, full curve]"
O=C(CSc1nnnn1-c1ccccc1)Nc1ncc2c(n1)CC(c1ccccc1)CC2=O (stereo unspecified),–,"2.06 µM [rising, partial curve]","1.3 µM [rising, partial curve]"
CCc1ccc(C(=O)c2cn(CC(=O)Nc3cccc(OC)c3)c3ccc(OC)cc3c2=O)cc1,36.9%,"25.9 µM [rising, partial curve, poor fit]","11.6 µM [rising, single point]"
Cc1ccc(S(=O)(=O)C(C#N)c2nc3ccccc3nc2N2CCC(C)CC2)cc1 (stereo unspecified),-6.38%,"6.51 µM [rising, single point]",–
COc1cc(/C=N/NC(=O)COc2c(C)cc([N+](=O)[O-])cc2C)ccc1OC(=O)c1ccccc1Br,-4.82%,"11.6 µM [rising, partial curve, poor fit]","6.51 µM [rising, single point]"
COc1ccc(NC(=O)CSc2nc3[nH]c(=O)cc(O)c3s2)c(OC)c1,-14.2%,–,"0.164 µM [falling, full curve, poor fit]"
CCC1Oc2ccccc2N(CC(=O)NC2CCCC2)C1=O (stereo unspecified),6.85%,"16.4 µM [rising, partial curve]",–
O=C(CCCNS(=O)(=O)c1ccccc1)NCc1ccco1,-179%,"23.1 µM [falling, partial curve]","25.9 µM [falling, partial curve]"
COCCn1c(SCC(=O)OCc2ccccc2)nc2c1c(=O)[nH]c(=O)n2C,-113%,"29.1 µM [falling, single point]","29.1 µM [falling, single point]"
Nc1cc(N)nc(SCC(=O)c2ccc3c(c2)NC(=O)CO3)n1,24.3%,–,–
Cc1cc(C)cc(C(=O)N2CCN=C2c2ccccc2)c1,17.2%,"0.00461 µM [rising, full curve, poor fit]",–
CCOC(=O)c1c(COc2ccccc2)oc2ccc(O)cc12,-26.4%,"0.116 µM [rising, full curve, poor fit]",–
CN(C)CCCN(C(=O)COc1ccccc1)c1nc2ccc(Cl)cc2s1,-7.86%,–,"4.11 µM [falling, partial curve, poor fit]"
CC1=NOC(=O)/C1=C\c1ccc2c(c1)OCO2,-18.3%,"6.51 µM [rising, single point]",–

SMILES,cell number change,AC50 [1],AC50 [2]
O=C(CCC(=O)N1CCN(c2ccccn2)CC1)Nc1nnc(C(F)(F)F)s1,8.9%,–,"0.651 µM [falling, single point]"
CC1(C)Cc2c(sc3nnn(Cc4ccccc4)c(=O)c23)CO1,3.62%,–,"0.651 µM [falling, full curve]"
COc1ccccc1NC(=O)Cc1nnc(SCC(=O)NC2CCCCC2C)n1C (stereo unspecified),-31.6%,–,"0.00411 µM [falling, full curve, poor fit]"
CCN(CCn1cccn1)C(=O)CC1C(=O)NCCN1Cc1ccc(OC)c(OC)c1 (stereo unspecified),1.1%,"6.51 µM [falling, single point]",–
O=C(O)c1cc(-c2ccccn2)n[nH]1,-17.3%,"1.16 µM [falling, single point]","0.13 µM [falling, full curve, poor fit]"
CC1=N/C(=C\c2ccc([N+](=O)[O-])cc2)C(=O)N1c1ccc(Cl)cc1,22.4%,"1.3 µM [falling, full curve]","0.0366 µM [rising, full curve, poor fit]"
CN(c1ccccc1)S(=O)(=O)c1cccc(C(=O)NC2CC(C)(C)NC(C)(C)C2)c1,10%,"1.84 µM [rising, single point]",–
CCCC(=O)Nc1ccc(-c2nc3ncccc3o2)cc1,13.5%,"2.31 µM [falling, single point]",–
O=C(NCc1cccc(C(F)(F)F)c1)c1ccc2c(c1)OCO2,-15.5%,"18.4 µM [falling, single point]",–
C=CC[N+](C)(C)c1ccc(CCC(=O)CCc2ccc([N+](C)(C)CC=C)cc2)cc1,17.3%,–,–
CC(C)C(=O)NC(c1ccc([N+](=O)[O-])cc1)c1c(O)ccc2ccccc12 (stereo unspecified),-29.4%,"14.6 µM [falling, partial curve, poor fit]",–
O=P(COCCO)(c1ccccc1)c1ccccc1,-35.9%,"0.259 µM [falling, full curve]","0.0259 µM [falling, full curve, poor fit]"
COc1cccc(COC(=O)Cc2ccc(S(=O)(=O)N3CCOCC3)s2)c1OC,-49.9%,–,"3.66 µM [falling, full curve]"
Nc1c(C(=O)NCc2ccccc2)nnn1Cc1cccc(Cl)c1,–,"0.184 µM [rising, full curve, poor fit]",–
COc1ccccc1NC(=O)C(C)OC(=O)/C=C/c1ccc2ccccc2n1 (stereo unspecified),-23.2%,"0.092 µM [falling, full curve, poor fit]",–
Cc1ccc(NC(=O)CN2C(=O)CC(C)S(=O)(=O)c3ccccc32)cc1 (stereo unspecified),0.382%,"29.1 µM [rising, single point]",–
CCc1ccc(NC(=O)CS(=O)CC(=O)Nc2ccc(-n3cnnn3)c(C)c2)cc1 (stereo unspecified),6.25%,"5.8 µM [rising, partial curve]",–
CC1CCC(NC(=O)Cn2c(=O)[nH]c3ccsc3c2=O)CC1 (stereo unspecified),1.13%,"0.58 µM [rising, single point]",–
CC(C)(C)n1nc2c(c1NC(=O)COc1ccc3ccccc3c1)CS(=O)C2 (stereo unspecified),68%,"29.1 µM [rising, single point]","3.66 µM [rising, partial curve, poor fit]"

# Reformatted as tab-separated lines: entries from further up.
SMILES	cell number change	AC50 [1]	AC50 [2]
COc1cccc(COC(=O)Cc2ccc(S(=O)(=O)N3CCOCC3)s2)c1OC	-49.9%	–	3.66 µM [falling, full curve]
Nc1c(C(=O)NCc2ccccc2)nnn1Cc1cccc(Cl)c1	–	0.184 µM [rising, full curve, poor fit]	–
COc1ccccc1NC(=O)C(C)OC(=O)/C=C/c1ccc2ccccc2n1 (stereo unspecified)	-23.2%	0.092 µM [falling, full curve, poor fit]	–
Cc1ccc(NC(=O)CN2C(=O)CC(C)S(=O)(=O)c3ccccc32)cc1 (stereo unspecified)	0.382%	29.1 µM [rising, single point]	–
CCc1ccc(NC(=O)CS(=O)CC(=O)Nc2ccc(-n3cnnn3)c(C)c2)cc1 (stereo unspecified)	6.25%	5.8 µM [rising, partial curve]	–

# Further results

SMILES,cell number change,AC50 [1],AC50 [2]
Cc1ccc(NC(=O)Cn2ccsc2=N)c([N+](=O)[O-])c1,7%,–,–
CCO[C@@H]1OC(C(=O)N2CCCCCCC2)=C[C@H](c2csc3ccccc23)[C@H]1CCCO,-16.2%,–,–
CC(=O)Nc1ccc(S(=O)(=O)N(CC(=O)O)Cc2ccccc2)cc1,-32.9%,"1.16 µM [falling, full curve]","0.231 µM [falling, full curve]"
COc1ccccc1N1CCN(C(=O)c2ccc3[nH]c4c(c3c2)CCCC4)CC1,-0.825%,"29.1 µM [falling, single point]",–
O=C(NCCNC(=O)c1cc(OCC(F)(F)F)ccc1OCC(F)(F)F)Nc1ccc(OC(F)(F)F)cc1,-2.23%,"6.51 µM [rising, partial curve]","6.51 µM [rising, single point]"
COc1ccc(NC(=O)C23CCC(C)(C(=O)C2)C3(C)C)cc1 (stereo unspecified),4.76%,"1.03 µM [falling, full curve]","0.731 µM [falling, full curve, poor fit]"
Cc1ccc(N2CCN(c3ccc(NCc4nc5ccccc5n4C)cc3)CC2)cc1,36.6%,"0.731 µM [rising, partial curve, poor fit]","3.26 µM [rising, partial curve]"
Cc1cc(C(=O)N2CCN(c3ncccn3)CC2)c(C)o1,-1%,"0.651 µM [falling, partial curve, poor fit]",–
Cc1cccc(C(=O)N(Cc2ccco2)c2c(N)n(Cc3ccccc3)c(=O)[nH]c2=O)c1,-13%,"4.11 µM [falling, single point]","4.11 µM [falling, single point]"
Cc1nn2c(-c3ccncc3)ccnc2c1Br,65.1%,–,"29.1 µM [rising, single point]"
Cc1ccnc2c(N3C(=O)C4C5c6ccccc6C(c6ccccc65)C4C3=O)cccc12 (stereo unspecified),-29.1%,"0.651 µM [falling, full curve, poor fit]",–
Cc1c(C(=O)OCCN2CCCCC2)oc2ccccc12,9.12%,–,–
COc1ccc(OCc2ccc(-c3nc4ccccc4c(=O)n3N)o2)cc1,7.64%,–,–
O=C(N/N=C/c1cccc(NC(=O)c2ccc(Cl)cc2)c1)c1ccc(O)cc1,16.1%,"6.51 µM [rising, single point]",–
Cc1cc2oc(=O)sc2cc1NS(=O)(=O)c1ccccc1,–,"0.116 µM [falling, full curve, poor fit]",–
CCCCn1c2ccccc2c2nnc(SCCN3CCCCC3)nc21,19.4%,–,–
COc1ccc(-c2nc3cc(C)ccn3c2NCc2ccc3c(c2)OCO3)cc1,-15.6%,"7.31 µM [falling, partial curve]",–
Nc1nc(N)nc(-c2cc(O)ccc2O)n1,-40%,–,"25.9 µM [falling, single point]"
